Experimental data reported in publication PMC12516131.
These are yes or no findings as the source states them, for the method shown. Where a sequence is shown, tags or fusion partners need not be part of it.

Biological target: eGFP-POK2 2510-2771-8xHis (Arabidopsis thaliana) (UniProt Q27IK6)
Assay: native gel or EMSA; blue native PAGE, 4-12% Tris-Glycine gels, 100 ng of each protein per lane, anti-GFP western blot and silver stain; both purified

B1: eGFP-POK2 2510-2771-8xHis (domain or fragment, UniProt Q27IK6 2510-2771)
chain: DSRERDLEVSHLKQQLNEYNEKRQGWIEEIEGKQTELVTAQIKLEEHRQYQQLLKKENELLKKENFSHKIKVMELEGEVKKLSSHQNPEWRTRDQARIKEENNVLKLQLDELNLKLRRADVSVSRAKEELAFYRASSVKNPHSNFDKTHQLSTKLKETEEDRMQLAQELLSLCTSILKAAGVTGEDFTDINPEVAEEALEQLKTKLGLLESEVHHFRLKGKAKSRRSRNPERKMPSMPSPRRSWSQSPRSMSQVPFFSSLDR
B1 was tested, and the binding was “no binding”.
